Experimental data: article PMC7145576
The exact form of at least one protein or probe is not confirmed.

Test system: PLE RepA
Assay: EMSA
Conditions: 10 mM Mg2+, poly(dI-dC) competitor; EMSA: 80 nM probe, 10 mM HEPES pH 7.8, 10% glycerol, 1 uM TCEP, 10 mM MgCl2, 0.4 ug poly(dI-dC) in 20 ul, 30 C 20 min; 8% acrylamide 0.5x Tris-borate gel; recombinant protein; protein details: N-terminal His6-SUMO, cleaved with SUMO protease

TTTATATGGATGATTTTCAACCCTATAAA (double strand) [repeat 3 (R3) probe]
binding result: binds
